# Measurements published in patent US10322097B2, “Treatment of subjects with multidrug-resistant cancer” (priority 2015, dated 2019).
# Tests used:
# Format in all cases: cell-based
# [1] = test system: HCT116 p53+/+ colon cancer cells; assay: MTT cytotoxicity assay, HCT116 p53+/+; conditions: Homo sapiens, HCT-116, 72 h, 3 days
# Experimental: (§1) Cell cultures and cytotoxicity assays have been used. Celastrol was dissolved in DMSO at a final concentration of 100 mmol/L and stored at −20° C. Cytotoxicity was assessed using the 3-(4,5-dimethylthiazol-2-yl)-2,5-diphenyltetrazolium bromide assay. 4000 cells from HCT116 p53^+/+ or p53^−/− colon cancer cells and DLD-1 Bax-Bak^+/+ or Bax-Bak^−/− colon cancer cells were seeded on 96-well plates per well. […] Subsequently, 10 μL of MTT reagents were added to each well and incubated at 37° C. for 4 hours followed by the addition of 100 μL solubilization buffer (10% SDS in 0.01 mol/L HCl) and overnight incubation. […] The percentage of cell viability was calculated using the following formula: Cell viability (%)=Cells number treated/Cells number DMSO control×100. Data were obtained from three independent experiments.
# [2] = test system: DLD-1 Bax-Bak+/+ colon cancer cells; assay: MTT cytotoxicity assay, DLD-1 Bax-Bak+/+; conditions: Homo sapiens, DLD-1, 72 h, 3 days
# Experimental: as §1
# [3] = test system: DLD-1 Bax-Bak-/- colon cancer cells; assay: MTT cytotoxicity assay, DLD-1 Bax-Bak-/-; conditions: Homo sapiens, DLD-1, 72 h, 3 days
# Experimental: as §1
smiles,measurement,setting,value
"CN[C@@H]1C[C@H]2O[C@@](C)([C@@H]1OC)n1c3ccccc3c3c4c(c5c6ccccc6n2c5c31)C(=O)NC4 [Staurosporine, staurosporine]",IC50,[1],3.69 nM
same,IC50,[2],29.1 nM
same,IC50,[3],> 100 nM
